From the supplement of paper PMC10849652
The list shows a part of the results.

Protein sequences, listed by entry. Tags and fused reporters are not part of them. Lines headed by an entry give the natural chain unless they say otherwise; changes in a name come on top.
UniProt Q6PGQ7, whole entry, looked up: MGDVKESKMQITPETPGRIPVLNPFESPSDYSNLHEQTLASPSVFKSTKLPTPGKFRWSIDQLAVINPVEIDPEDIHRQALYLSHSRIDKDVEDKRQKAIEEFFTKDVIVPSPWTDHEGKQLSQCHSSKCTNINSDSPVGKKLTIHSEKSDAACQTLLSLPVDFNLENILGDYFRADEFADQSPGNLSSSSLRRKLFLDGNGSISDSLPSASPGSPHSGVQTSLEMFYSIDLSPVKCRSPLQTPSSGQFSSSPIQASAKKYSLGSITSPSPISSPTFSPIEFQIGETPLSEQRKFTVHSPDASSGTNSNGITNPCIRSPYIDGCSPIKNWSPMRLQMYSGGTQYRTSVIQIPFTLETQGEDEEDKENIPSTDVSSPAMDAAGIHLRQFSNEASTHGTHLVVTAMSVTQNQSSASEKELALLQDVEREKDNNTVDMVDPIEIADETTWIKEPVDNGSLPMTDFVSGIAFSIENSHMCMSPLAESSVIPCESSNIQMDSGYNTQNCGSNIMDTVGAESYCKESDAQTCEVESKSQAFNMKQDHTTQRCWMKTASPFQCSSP
UniProt Q96GD4, whole entry, looked up: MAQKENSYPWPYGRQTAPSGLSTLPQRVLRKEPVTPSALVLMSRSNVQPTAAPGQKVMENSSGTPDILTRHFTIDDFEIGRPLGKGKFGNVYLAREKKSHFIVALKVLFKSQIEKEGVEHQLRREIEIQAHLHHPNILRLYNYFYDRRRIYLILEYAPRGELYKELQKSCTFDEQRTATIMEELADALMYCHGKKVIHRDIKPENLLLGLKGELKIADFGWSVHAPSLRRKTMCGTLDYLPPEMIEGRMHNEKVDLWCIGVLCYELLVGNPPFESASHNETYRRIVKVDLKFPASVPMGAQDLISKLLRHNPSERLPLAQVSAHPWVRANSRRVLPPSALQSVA
UniProt O60513: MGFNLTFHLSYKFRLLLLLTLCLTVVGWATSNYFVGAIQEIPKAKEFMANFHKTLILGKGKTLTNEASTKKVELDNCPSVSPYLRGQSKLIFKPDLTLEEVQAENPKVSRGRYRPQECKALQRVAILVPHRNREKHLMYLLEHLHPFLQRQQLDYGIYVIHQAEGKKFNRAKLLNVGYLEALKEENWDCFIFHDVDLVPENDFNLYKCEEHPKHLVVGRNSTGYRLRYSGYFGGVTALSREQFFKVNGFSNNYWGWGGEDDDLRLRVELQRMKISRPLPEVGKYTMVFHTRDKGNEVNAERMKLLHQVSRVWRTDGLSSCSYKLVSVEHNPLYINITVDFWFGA
UniProt Q96L58: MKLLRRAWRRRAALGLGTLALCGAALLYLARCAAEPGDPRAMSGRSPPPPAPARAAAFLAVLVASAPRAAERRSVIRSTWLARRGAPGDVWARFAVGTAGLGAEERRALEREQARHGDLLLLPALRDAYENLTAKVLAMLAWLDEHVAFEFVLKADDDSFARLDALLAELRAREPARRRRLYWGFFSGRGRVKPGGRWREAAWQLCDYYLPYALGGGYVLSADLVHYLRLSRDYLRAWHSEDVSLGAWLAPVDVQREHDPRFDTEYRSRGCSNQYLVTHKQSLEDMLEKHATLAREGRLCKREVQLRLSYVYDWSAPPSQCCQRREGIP
UniProt Q12983, whole entry, looked up: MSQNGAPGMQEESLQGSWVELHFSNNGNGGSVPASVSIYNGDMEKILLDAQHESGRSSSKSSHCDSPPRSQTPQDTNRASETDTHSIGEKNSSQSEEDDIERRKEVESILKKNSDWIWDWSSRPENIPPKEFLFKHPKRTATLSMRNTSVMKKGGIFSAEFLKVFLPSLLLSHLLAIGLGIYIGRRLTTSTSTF
UniProt Q8TBE0: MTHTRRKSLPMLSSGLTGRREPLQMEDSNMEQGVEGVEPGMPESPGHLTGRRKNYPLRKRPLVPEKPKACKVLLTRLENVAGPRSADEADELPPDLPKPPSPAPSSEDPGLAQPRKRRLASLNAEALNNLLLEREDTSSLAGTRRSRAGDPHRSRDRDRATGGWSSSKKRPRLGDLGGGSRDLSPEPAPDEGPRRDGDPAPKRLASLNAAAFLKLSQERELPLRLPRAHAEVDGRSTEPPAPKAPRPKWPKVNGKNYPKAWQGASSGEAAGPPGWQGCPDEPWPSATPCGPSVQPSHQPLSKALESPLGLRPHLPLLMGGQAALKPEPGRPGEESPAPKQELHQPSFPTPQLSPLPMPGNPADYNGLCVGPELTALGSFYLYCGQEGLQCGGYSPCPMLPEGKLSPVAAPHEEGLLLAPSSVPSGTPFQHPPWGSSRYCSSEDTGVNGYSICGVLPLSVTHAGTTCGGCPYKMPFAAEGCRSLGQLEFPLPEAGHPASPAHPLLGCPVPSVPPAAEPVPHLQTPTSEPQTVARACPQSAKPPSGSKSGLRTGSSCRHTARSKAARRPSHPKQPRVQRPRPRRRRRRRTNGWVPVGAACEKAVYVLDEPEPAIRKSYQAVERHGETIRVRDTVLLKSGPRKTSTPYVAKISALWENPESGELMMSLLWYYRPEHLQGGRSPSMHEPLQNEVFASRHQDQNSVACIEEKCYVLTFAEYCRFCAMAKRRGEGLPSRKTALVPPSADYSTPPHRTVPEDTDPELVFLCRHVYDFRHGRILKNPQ
UniProt P25440, whole entry, looked up: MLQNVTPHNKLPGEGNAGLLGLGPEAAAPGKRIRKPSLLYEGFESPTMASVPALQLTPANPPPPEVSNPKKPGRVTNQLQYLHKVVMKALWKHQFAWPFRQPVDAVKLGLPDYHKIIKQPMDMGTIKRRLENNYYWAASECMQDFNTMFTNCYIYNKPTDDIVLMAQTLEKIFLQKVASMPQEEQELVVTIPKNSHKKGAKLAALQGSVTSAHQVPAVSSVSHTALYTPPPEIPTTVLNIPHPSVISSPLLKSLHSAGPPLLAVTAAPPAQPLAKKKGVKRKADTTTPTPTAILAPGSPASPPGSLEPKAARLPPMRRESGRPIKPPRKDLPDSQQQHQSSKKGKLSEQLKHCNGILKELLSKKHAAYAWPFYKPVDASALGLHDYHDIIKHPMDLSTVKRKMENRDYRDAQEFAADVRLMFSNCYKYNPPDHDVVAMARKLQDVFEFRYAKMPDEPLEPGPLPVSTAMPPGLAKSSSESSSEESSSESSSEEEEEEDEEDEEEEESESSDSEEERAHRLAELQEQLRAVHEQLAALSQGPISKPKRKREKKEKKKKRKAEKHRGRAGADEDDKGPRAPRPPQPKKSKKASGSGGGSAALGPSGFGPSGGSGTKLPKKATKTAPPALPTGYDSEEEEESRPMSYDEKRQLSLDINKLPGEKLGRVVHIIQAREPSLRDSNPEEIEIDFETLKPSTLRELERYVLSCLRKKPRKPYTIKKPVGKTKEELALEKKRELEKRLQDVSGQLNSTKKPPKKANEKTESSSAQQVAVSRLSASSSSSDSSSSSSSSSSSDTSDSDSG
UniProt Q9UQB8: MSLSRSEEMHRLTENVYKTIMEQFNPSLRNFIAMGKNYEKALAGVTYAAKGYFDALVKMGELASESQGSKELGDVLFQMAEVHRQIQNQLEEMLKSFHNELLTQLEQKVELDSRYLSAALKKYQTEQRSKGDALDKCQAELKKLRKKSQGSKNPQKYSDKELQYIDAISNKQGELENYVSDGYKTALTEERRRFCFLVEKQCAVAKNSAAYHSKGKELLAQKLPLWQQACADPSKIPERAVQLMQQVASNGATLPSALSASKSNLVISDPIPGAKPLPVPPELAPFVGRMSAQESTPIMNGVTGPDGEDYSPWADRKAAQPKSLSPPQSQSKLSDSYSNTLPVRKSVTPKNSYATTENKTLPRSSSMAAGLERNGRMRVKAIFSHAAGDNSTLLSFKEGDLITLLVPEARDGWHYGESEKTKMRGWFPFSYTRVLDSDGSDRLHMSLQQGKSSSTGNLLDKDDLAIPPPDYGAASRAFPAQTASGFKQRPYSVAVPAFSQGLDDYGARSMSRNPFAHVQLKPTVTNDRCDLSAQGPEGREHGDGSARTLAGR
UniProt Q96FH0: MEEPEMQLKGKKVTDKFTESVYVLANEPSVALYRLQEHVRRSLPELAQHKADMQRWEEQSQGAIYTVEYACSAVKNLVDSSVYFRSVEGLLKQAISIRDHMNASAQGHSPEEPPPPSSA
UniProt Q8IXM2, whole entry, looked up: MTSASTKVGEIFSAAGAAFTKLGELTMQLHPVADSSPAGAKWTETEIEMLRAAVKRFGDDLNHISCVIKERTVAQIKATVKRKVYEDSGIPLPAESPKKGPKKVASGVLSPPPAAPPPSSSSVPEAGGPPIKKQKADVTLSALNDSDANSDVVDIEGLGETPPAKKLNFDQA
UniProt Q5T6C5: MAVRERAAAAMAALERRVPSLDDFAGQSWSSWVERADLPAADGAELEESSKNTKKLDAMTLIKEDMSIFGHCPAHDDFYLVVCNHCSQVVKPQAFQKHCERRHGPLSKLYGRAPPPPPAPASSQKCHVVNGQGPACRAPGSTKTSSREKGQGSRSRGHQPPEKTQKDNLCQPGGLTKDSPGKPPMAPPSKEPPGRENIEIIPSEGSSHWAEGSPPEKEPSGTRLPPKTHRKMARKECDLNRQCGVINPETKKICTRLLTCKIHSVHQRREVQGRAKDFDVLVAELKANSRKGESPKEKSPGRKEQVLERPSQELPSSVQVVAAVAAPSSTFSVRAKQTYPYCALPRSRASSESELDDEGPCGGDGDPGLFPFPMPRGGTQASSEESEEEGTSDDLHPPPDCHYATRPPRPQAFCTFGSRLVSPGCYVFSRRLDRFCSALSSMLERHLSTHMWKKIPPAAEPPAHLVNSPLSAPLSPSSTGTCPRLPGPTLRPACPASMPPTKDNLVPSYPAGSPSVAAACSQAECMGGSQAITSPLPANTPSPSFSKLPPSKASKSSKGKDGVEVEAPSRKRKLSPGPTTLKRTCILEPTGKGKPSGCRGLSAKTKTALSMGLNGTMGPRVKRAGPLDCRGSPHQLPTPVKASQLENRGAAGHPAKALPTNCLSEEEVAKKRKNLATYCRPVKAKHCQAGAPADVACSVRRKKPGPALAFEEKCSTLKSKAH
UniProt P13497: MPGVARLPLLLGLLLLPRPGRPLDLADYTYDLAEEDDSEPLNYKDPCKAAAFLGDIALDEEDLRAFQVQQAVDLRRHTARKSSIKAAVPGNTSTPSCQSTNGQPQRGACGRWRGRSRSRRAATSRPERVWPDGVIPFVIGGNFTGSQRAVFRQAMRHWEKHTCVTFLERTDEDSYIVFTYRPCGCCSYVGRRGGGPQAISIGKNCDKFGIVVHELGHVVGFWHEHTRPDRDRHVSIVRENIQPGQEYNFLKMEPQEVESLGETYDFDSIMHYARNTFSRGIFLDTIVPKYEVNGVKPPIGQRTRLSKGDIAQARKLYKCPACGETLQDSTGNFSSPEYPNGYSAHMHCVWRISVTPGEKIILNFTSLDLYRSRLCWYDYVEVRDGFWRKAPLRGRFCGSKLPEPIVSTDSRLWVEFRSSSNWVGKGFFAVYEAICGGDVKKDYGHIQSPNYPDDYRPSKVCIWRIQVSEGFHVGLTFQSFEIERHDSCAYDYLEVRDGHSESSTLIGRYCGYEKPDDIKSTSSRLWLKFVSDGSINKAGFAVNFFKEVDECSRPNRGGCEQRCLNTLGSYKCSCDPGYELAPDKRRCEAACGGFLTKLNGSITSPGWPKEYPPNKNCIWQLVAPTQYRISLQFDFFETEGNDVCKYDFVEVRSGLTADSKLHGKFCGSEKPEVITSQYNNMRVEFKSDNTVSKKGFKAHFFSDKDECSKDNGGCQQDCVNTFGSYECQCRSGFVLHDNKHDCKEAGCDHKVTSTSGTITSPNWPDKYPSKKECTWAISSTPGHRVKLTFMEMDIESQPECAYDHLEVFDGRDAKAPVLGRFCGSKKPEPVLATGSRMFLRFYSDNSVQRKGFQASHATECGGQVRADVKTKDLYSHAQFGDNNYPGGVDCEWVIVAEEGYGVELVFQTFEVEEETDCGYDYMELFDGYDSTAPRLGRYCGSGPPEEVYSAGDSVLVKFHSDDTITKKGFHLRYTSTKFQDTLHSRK
UniProt Q9NZS9: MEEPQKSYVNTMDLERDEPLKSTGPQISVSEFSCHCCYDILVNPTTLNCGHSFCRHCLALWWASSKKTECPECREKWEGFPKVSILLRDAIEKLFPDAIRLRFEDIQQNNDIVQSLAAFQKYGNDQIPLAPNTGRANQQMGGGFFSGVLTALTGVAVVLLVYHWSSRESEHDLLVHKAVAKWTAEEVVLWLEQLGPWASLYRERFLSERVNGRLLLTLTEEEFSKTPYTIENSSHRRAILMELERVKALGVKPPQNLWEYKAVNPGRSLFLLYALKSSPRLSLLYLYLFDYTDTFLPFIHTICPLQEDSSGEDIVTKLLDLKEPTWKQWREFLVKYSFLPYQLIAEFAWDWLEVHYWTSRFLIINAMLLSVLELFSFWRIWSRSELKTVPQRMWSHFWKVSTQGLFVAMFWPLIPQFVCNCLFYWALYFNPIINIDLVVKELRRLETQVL
UniProt O95415: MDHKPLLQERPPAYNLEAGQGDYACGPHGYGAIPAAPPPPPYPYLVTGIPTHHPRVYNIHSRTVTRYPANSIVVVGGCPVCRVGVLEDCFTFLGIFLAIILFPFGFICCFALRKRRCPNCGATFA
UniProt Q9NWD9: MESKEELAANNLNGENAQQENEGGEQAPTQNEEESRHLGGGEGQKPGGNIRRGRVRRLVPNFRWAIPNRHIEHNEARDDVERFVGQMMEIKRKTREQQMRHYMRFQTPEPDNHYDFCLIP

Key:
Assay in all cases: log2 fold change, soluble protein after heating vs DMSO (PISA); higher = thermal stabilisation; K562 cells, 10 uM, 30 min; active = over 0.2 and 3.5 SD of the protein, either way, in both replicates (recomputed)
erlotinib = compound: C#Cc1cccc(Nc2ncnc3cc(OCCOC)c(OCCOC)cc23)c1 [erlotinib]
How it was run: (§1)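 Soluble protein was defined as the supernatant after 21,000xg for 90 min. It came from K562 cells at 2×10^6 cells/mL given 10 μM compound for 30 min, heated in aliquots for 3 min across 48°C-58°C, pooled, and extracted in PBS with 0.5% NP-40 at 4°C, and was quantified by TMTpro 16plex LC-MS/MS with equalised channel sums. Thermal stability against control samples, from duplicates, is reported as log2 fold change.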

[1] = compound: C1=CC(=CC=C1C2=NC3=C(N2)C=C(C=C3)C(=O)N)OC4=CC=C(C=C4)Cl
How it was run: as §1

[2] = compound: C1=CC=C(C=C1)C2=NC(=C(N2)C3=CC=NC=C3)C4=CC(=C(C=C4)Cl)O
How it was run: as §1

[3] = compound: C1=CC(=C(C=C1Cl)C2=NC3=NC=CN=C3C(=N2)NC4=CC=NC=C4)F
How it was run: as §1

[4] = compound: C1=CC2=NC=CN=C2C=C1/C=C/3\C(=O)NC(=O)S3
How it was run: as §1

[5] = compound: C1CCN(C1)C(=O)NC2=CC=CC(=C2)NC3=NC=C(C(=N3)NCCC4=CN=CN4)Br
How it was run: as §1

[6] = compound: C1CN(CCC1(CC2=CC=C(C=C2)Cl)N)C3=NC=NC4=C3C=CN4
How it was run: as §1

[7] = compound: C/C(=N\NC(=O)C1=CC(=CC=C1)S(=O)(=O)N2CCOCC2)/C3=C(C=CC(=C3)Cl)O
How it was run: as §1

[8] = compound: C1=CC2=C(C=CC(=C2)/C=C\3/C(=O)NC(=NCC4=CC=CS4)S3)N=C1
How it was run: as §1

[9] = compound: C1=CC=C2C(=C1)C3=NNC4=CC=CC(=C43)C2=O
How it was run: as §1

Measured: log2 fold change

BRCA1 isoform 7 (UniProt P38398)
inactive: erlotinib 0.312 | [1] -0.312 | [2] -0.222

BCR (UniProt P11274)
inactive: erlotinib -0.032 | [3] -0.525 | [1] -0.306 | [4] 0.023 | [2] -0.069 | [5] 0.007 | [6] -0.544

BORA (UniProt Q6PGQ7)
inactive: [3] -0.552 | [4] 0.286

BPTF (UniProt Q12830)
inactive: erlotinib 0.079 | [3] 0.05 | [1] -0.102

2 records drawn at random from the list so far, as already listed:
BRCA1 isoform 7 (UniProt P38398)
inactive: erlotinib 0.312 | [1] -0.312 | [2] -0.222

BORA (UniProt Q6PGQ7)
inactive: [3] -0.552 | [4] 0.286

Remaining list, next part:

AURKB isoform 5 (UniProt Q96GD4)
inactive: [7] 0.086 | [8] -0.382 | [9] 1.08 | [5] 1.33 | [6] 0.1

BNIP3L (UniProt O60238)
inactive: erlotinib 0.001 | [1] 0.056 | [2] -0.228 | [5] 0.035 | [6] 0.014

AVEN (UniProt Q9NQS1)
inactive: erlotinib 0.089 | [3] -0.08 | [1] -0.027 | [4] -0.059

BCDIN3D (UniProt Q7Z5W3)
inactive: [7] 0.155 | [8] 0.112 | [4] 0.088 | [9] 0.049 | [5] -0.188 | [6] 0.177

B4GALT4 (UniProt O60513)
inactive: [4] -0.032 | [2] 0.177

BRAF, A0A2R8Y8E0
inactive: erlotinib 0.073 | [7] 0.15 | [1] 0.083 | [8] -0.248 | [9] -0.047 | [5] -0.235 | [6] -0.26
active: [2] -0.987

BNIP2 (UniProt H7C096)
inactive: erlotinib -0.055 | [1] 0.144 | [4] -0.101

AZIN1 (UniProt O14977)
inactive: [2] -0.021

BOD1 (UniProt Q96IK1)
inactive: erlotinib -0.036 | [1] 0.039 | [2] 0.043

AUNIP isoform 2 (UniProt Q9H7T9)
inactive: erlotinib -0.023 | [7] 0.066 | [1] 0.297 | [8] 0.083 | [9] 0.027 | [5] 0.041 | [6] 0.066

B3GALT6 (UniProt Q96L58)
inactive: erlotinib -0.269 | [1] -0.106 | [2] -0.113

ATXN2 (UniProt F8W0B5)
inactive: erlotinib 0.013 | [7] -0.026 | [1] 0.052 | [8] -0.087 | [2] -0.002 | [9] -0.006

BNIP3 (UniProt Q12983)
inactive: [7] -0.021 | [3] -0.086 | [8] 0.098 | [4] -0.035 | [2] -0.023 | [9] -0.107 | [5] -0.056 | [6] 0.023

BAHD1 (UniProt Q8TBE0)
inactive: erlotinib 0.063 | [1] 0.019

B3GALNT2 (UniProt Q8NCR0)
inactive: erlotinib 0.018 | [3] 0.055 | [1] 0.119 | [4] -0.082 | [2] 0.035 | [5] 0.243 | [6] -0.425

ATRX (UniProt P46100)
inactive: [7] 0.016 | [8] -0.153 | [9] -0.076

BCAS3 isoform 8 (UniProt Q9H6U6)
inactive: erlotinib -0.099 | [7] -0.036 | [1] 0.186 | [8] 0 | [9] 0.132 | [5] -0.016 | [6] 0.107

BRD2 isoform 2 (UniProt P25440)
inactive: erlotinib -0.552 | [1] 0.204 | [8] -0.073 | [4] 0.367 | [9] 0.137 | [5] -0.08 | [6] -0.002

BAIAP2 isoform 4 (UniProt Q9UQB8)
inactive: [5] -0.16 | [6] -0.048

BORCS8 (UniProt Q96FH0)
inactive: [2] 0.003 | [5] -0.059 | [6] -0.098

BPIFA1 (UniProt Q9NP55)
inactive: [4] -0.087 | [2] -0.211

BCOR (UniProt Q6W2J9)
inactive: erlotinib 0.1 | [3] -0.134 | [1] -0.124 | [4] 0.025 | [5] 0.325 | [6] -0.024

AZI2 (UniProt Q9H6S1)
inactive: erlotinib -0.039 | [1] -0.211 | [4] 0.009 | [2] -0.012 | [5] -0.025 | [6] 0.04

BPNT1 (UniProt A6NF51)
inactive: erlotinib 0.023 | [3] -0.051 | [1] -0.077 | [4] 0.162 | [2] 0.023 | [5] -0.045 | [6] -0.042

BCS1L, A0A2R8Y7T3
inactive: [4] -0.358

BAP18 isoform 3 (UniProt Q8IXM2)
inactive: erlotinib 0.02 | [1] -0.146 | [5] -0.039 | [6] -0.015

ATXN7L2 (UniProt Q5T6C5)
inactive: [3] 0.134

B3GNT5 (UniProt Q9BYG0)
inactive: erlotinib 0.025 | [3] 0.015 | [1] 0.071 | [4] -0.006

BMP1 (UniProt P13497)
inactive: erlotinib -0.102 | [1] 0.215 | [4] 0.189

BFAR (UniProt Q9NZS9)
inactive: [3] 0.087

BRI3 (UniProt O95415)
inactive: [4] -0.23

BEX4 (UniProt Q9NWD9)
inactive: erlotinib -0.084 | [1] -0.028 | [4] -0.045
